Measurements reported in paper PMC5302063, “In vivo mapping of a dynamic ribonucleoprotein granule interactome in early Drosophila embryos” (FEBS Open Bio, 2016).
These are yes or no findings as the source states them, for the method shown. Some binding calls cover weakened binding; strength is not graded here.

Protein sequences, listed by entry. Tags and fused reporters are not part of them.
UniProt P25823: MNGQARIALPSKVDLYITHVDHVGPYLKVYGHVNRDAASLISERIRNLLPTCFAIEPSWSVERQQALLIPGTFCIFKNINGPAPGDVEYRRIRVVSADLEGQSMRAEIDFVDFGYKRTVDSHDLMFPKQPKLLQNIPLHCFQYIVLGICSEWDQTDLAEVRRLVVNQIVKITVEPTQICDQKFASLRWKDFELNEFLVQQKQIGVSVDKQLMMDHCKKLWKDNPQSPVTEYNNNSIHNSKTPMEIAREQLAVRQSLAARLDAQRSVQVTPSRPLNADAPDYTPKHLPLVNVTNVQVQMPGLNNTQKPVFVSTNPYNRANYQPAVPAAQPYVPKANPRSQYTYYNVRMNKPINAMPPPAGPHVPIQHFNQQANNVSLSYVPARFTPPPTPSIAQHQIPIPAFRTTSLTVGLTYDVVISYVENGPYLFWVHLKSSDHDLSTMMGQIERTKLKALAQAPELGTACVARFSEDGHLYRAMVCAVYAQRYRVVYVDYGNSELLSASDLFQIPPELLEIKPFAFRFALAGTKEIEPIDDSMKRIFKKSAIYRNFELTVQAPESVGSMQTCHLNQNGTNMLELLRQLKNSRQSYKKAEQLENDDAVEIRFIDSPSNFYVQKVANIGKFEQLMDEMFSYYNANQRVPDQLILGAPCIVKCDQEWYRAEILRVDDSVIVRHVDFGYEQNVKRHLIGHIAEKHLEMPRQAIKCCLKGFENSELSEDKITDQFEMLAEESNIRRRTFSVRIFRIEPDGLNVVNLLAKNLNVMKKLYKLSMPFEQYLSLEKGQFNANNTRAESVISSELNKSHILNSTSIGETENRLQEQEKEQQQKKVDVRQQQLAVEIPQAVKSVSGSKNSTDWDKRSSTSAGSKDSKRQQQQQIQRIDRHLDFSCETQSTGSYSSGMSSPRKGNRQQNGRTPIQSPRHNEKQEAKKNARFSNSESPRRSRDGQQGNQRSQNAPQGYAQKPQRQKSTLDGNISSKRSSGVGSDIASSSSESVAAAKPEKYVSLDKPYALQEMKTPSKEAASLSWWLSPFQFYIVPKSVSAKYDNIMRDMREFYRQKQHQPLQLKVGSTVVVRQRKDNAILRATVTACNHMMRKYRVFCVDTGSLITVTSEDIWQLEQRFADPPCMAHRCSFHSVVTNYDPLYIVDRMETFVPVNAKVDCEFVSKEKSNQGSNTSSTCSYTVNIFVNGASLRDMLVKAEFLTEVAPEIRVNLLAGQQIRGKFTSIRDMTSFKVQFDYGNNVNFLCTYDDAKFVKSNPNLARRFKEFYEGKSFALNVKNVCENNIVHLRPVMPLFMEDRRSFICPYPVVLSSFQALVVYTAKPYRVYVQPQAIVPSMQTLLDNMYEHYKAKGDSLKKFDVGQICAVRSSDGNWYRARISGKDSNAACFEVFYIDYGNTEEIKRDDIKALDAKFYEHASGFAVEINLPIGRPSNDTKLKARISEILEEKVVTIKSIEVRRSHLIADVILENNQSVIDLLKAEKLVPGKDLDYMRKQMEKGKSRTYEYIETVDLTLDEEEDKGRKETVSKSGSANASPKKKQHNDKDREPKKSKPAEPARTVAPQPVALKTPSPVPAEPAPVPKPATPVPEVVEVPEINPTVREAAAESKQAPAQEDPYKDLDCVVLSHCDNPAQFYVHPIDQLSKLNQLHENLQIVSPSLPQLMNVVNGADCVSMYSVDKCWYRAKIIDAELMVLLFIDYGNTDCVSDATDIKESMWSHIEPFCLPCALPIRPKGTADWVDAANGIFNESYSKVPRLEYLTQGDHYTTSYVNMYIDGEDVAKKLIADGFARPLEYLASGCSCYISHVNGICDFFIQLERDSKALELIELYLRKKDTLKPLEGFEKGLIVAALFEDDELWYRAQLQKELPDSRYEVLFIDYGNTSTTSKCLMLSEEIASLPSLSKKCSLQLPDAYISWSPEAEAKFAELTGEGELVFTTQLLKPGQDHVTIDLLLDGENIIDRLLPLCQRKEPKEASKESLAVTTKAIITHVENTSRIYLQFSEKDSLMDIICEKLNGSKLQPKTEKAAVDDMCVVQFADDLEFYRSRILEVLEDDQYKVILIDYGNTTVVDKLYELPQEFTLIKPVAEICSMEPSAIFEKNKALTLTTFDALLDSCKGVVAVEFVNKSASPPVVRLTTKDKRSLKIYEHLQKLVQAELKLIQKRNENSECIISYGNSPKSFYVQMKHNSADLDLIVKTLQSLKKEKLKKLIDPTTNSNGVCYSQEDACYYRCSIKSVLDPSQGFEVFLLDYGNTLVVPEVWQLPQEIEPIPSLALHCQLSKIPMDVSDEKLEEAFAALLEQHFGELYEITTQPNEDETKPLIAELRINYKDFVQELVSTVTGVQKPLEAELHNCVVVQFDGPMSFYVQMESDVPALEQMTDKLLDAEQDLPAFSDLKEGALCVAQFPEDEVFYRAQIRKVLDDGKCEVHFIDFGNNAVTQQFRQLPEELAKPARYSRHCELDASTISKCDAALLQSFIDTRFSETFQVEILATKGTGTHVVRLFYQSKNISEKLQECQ

What was measured:
[1] = target: Myc-tagged eIF4A (Drosophila) (UniProt Q02748); assay: pull-down; purified Myc-eIF4A or Myc-GFP control bound to anti-c-Myc beads; purified HA-Tud added; conditions as for Aub-eIF4A; western blot with anti-HA; both purified
[2] = target: recombinant Tud with N-terminal His- and HA-tags (Drosophila) (UniProt P25823); assay: pull-down; HA-Tud bound to anti-HA beads; purified Myc-tagged eIF4A and eGFP control added; conditions as for Aub-eIF4A; both purified

binding [1] | binding [2] | Molecule
binds |  | recombinant Tud with N-terminal His- and HA-tags (from UniProt P25823 1-2515)
 | binds | Myc-tagged eIF4A (enzyme, Drosophila, UniProt Q02748 1-403, looked up, eukaryotic translation initiation factor 4A (eIF4A), ATP-dependent RNA helicase, Drosophila; also called Myc-eIF4A; eukaryotic translation initiation factor 4A; source: S2 cells, purified (anti-c-Myc beads, c-Myc peptide elution)) MDDRNEIPQDGPASMEPEGVIESTWHEVYDNFDDMNLREELLRGIYGYGFEKPSAIQQRAIIPCVRGRDVIAQAQSGTGKTATFSIAILQQIDTSIRECQALILAPTRELATQIQRVVMALGEYMKVHSHACIGGTNVREDARILESGCHVVVGTPGRVYDMINRKVLRTQYIKLFVLDEADEMLSRGFKDQIQDVFKMLPPDVQVILLSATMPPDVLEVSRCFMRDPVSILVKKEELTLEGIKQFYVNVKQENWKLGTLCDLYDTLSITQSVIFCNTRRKVDQLTQEMSIHNFTVSAMHGDMEQRDREVIMKQFRSGSSRVLITTDLLARGIDVQQVSLVINYDLPSNRENYIHRIGRGGRFGRKGVAINFITDDDRRILKDIEQFYHTTIEEMPANIADLI
